In article doi:10.1101/2022.06.20.496767:
Results are given in words; binding and its absence hold for the method and conditions named. Some results given as binding are weak or reduced against the parent protein; the word gives no strength.

Sequences of proteins named here, by UniProt entry; tags and fusion partners are left off.
UniProt Q6Q1P4: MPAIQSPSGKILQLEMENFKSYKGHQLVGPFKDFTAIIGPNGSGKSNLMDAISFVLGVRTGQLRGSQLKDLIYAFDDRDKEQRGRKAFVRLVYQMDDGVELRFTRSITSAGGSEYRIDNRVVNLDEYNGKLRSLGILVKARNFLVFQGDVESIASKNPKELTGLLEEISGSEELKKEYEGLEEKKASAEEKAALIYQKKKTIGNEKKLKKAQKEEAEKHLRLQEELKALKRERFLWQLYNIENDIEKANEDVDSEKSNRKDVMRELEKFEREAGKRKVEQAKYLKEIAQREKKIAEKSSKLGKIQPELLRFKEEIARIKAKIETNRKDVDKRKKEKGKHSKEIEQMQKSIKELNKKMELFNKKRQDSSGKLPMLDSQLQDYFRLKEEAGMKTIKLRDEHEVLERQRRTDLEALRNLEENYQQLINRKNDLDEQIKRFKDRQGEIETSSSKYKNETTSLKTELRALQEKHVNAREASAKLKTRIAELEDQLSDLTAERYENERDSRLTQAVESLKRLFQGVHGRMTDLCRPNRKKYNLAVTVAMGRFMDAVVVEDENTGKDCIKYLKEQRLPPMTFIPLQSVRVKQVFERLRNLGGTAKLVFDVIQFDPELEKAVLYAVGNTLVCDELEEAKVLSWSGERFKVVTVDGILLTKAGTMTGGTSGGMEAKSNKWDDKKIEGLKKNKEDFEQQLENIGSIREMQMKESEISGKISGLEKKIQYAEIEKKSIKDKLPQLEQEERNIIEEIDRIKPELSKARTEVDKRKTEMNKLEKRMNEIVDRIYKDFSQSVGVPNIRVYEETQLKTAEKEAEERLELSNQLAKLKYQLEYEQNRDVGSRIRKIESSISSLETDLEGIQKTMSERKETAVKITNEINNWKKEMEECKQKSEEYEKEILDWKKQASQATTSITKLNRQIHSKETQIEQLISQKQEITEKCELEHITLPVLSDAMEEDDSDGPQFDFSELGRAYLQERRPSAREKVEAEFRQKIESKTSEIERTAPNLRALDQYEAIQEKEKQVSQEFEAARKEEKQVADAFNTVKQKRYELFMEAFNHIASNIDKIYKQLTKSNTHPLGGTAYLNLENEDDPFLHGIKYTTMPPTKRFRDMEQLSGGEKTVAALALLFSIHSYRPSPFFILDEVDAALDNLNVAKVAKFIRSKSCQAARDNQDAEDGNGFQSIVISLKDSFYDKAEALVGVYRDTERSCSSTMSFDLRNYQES

Experiments:
[1] = target: T1, SCC3 (yeast two-hybrid construct) (Arabidopsis thaliana) (UniProt O82265); assay: two-hybrid
T1 sequence: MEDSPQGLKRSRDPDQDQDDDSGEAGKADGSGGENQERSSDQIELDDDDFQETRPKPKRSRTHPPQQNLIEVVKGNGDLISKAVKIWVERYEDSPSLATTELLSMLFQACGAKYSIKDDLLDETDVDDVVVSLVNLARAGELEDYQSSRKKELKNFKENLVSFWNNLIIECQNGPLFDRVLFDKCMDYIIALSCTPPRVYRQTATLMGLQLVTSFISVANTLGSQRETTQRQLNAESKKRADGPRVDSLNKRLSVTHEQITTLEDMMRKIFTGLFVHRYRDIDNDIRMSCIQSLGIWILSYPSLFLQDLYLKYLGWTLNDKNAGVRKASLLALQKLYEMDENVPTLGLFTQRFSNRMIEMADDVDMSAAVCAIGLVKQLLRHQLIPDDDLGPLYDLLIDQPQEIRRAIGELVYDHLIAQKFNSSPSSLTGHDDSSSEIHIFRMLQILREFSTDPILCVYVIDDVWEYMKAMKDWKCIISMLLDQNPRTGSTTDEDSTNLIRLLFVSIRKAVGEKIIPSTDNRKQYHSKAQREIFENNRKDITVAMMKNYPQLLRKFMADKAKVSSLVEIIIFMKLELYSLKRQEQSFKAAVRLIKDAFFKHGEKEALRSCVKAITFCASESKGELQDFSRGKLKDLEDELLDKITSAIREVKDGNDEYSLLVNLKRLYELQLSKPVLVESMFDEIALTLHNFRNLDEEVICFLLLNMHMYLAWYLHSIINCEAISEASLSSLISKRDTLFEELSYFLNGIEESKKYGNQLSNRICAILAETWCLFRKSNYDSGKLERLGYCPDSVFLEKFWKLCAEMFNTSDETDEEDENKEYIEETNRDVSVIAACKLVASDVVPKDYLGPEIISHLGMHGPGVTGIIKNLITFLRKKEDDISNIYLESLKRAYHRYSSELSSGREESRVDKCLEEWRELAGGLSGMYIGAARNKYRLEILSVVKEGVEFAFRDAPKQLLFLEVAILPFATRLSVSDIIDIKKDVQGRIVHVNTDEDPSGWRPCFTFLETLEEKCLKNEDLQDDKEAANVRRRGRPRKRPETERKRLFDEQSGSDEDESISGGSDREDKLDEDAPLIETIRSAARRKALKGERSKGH

[2] = target: SMC1 (yeast two-hybrid construct) (Arabidopsis thaliana) (UniProt Q6Q1P4); assay: two-hybrid

binding [1]: binds
binding [2]: binds
B1: RAD21.2 (yeast two-hybrid construct in pGADT7) (protein, UniProt Q9FQ19 1-693)
chain: MFYSHTLLARKGPLGTVWCAAHVHQRLKKSQYTSINIPDTVDNIMFPEVPLALRTSSHLLVGVVRIYSKKVDYLYNDWNLLNTWVAKAFVSTQVNLPEDARQAPPESVTLPQALNLDEFDLEDDTLDMEFDNHTRSEEDITLTDQIPTGIDPYVAVTFDEDIISESIPMDVDQSTEPVSRHTGEIDVETAHETGPDNEPRDSNIAFDTGTYSPRNVTEEFTEVQDPRQSNLTEERIPNSERNDATSPGTVPEIERMRDAAHDLSPTSHPSFAAQQQDVRVERTESLDETLNEKEPTIPSIDEEMLNSGRHSAFELRSGSPGSAAGSEEERADFVHPSPQLVLQPSPPPQPQRRARKRKNFDGVTVLTNKNISERLKDPSDTLRKRKKMPSSKLKFWRMNNQSRKDQNFNEPLFTGFSDDLRNVFEKDYVASKPHLAVSDETLPEPASVSPTREAEVEINPVSPIPDSTNPDSTVQLSPAQQTEDVLDSAGPRPAHAESVATEAQSPRTFDNDDMGIEHLRDGGFPVYMPSPPPRSSPFRTDDFTTQSGNWETESYRTEPSTSTVPEDLPGQRNLGLSPVSERTDEELYFLEVGGNSPVGTPASQDSAALTGRARALAQYLKQRSSSSPTTSSHPSGDLSLSEILAGKTRKLAARMFFETLVLKSRGLIDMQQDRPYGDIALKLMPALFSKVQT
